Molecules are shown by their SMILES. The full ranking holds about 1,600 compounds; the median of “Hit score” is about 0.13, and the highest 2% start at about 0.46. The list shows a part of the results.

Hit score data for 45 molecules are collected here from ChEMBL document CHEMBL4303122, “Identification of potential treatments for COVID-19 through artificial intelligence-enabled phenomic analysis of human cells infected with SARS-CoV-2” (2020).

The test system of this assay is SARS-CoV-2. The assay is described as follows: Antiviral activity against SARS-CoV-2 (USA-WA1/2020 strain) measured by imaging in HRCE cells at MOI 0.4 after 96 hrs (reported as hit score from 0-1 for on-disease vs off-disease activity: scores >0.6 considered hits). The assay is classed as functional, Homo sapiens.
Consider `Nc1nc(Cl)nc2c1ncn2[C@H]1C[C@H](O)[C@@H](CO)O1` [CLADRIBINE], for which the Hit score came out at 0.07801.

For `CCC(=O)O[C@@H](O[P@](=O)(CCCCc1ccccc1)CC(=O)N1C[C@H](C2CCCCC2)C[C@H]1C(=O)O)C(C)C` [FOSINOPRIL], the Hit score worked out at 0.3051. The result for `Oc1ncnc2[nH]ncc12` [ALLOPURINOL] reads 0.02121; that for `C=C1CC[C@H](O)C/C1=C/C=C1\CCC[C@]2(C)[C@@H]([C@H](C)CC[C@@H](O)C(C)(C)O)CC[C@@H]12` [SECALCIFEROL], 0.3632. Molecule `CC(C)(C)NCC(O)c1cc(Cl)c(N)c(C(F)(F)F)c1` (stereo not given) [MABUTEROL] displayed a Hit score of -0.1589. The result for `CNCCCC1c2ccccc2C=Cc2ccccc21` [PROTRIPTYLINE] reads 0.03947. The same measure for `CCOC(=O)C1=C[C@@H](OC(CC)CC)[C@H](NC(C)=O)[C@@H](N)C1` [OSELTAMIVIR]: 0.1622.

`O=C(O)CC(O)C(=O)O` (stereo not given) [MALIC ACID] yielded a Hit score of 0.2337. `C[N+]1(CCCCC[N+]2(C)CCCC2)CCCC1` [PENTOLINIUM] returned a Hit score of 0.06742. As for `Cc1onc(-c2ccccc2)c1-c1ccc(S(N)(=O)=O)cc1` [VALDECOXIB], the Hit score was 0.2792. The same measure for `COc1ccc(CCN(C)CCCC(C#N)(c2ccc(OC)c(OC)c2)C(C)C)cc1OC` (stereo not given): 0.1784.

In turn, `CCC(=O)O[C@]1(C(=O)COC(C)=O)CC[C@H]2[C@@H]3C[C@H](C)C4=CC(=O)C=C[C@]4(C)[C@H]3[C@@H](O)C[C@@]21C` [METHYLPREDNISOLONE ACEPONATE] displayed a Hit score of 0.1295.

In turn, `CCCCC(F)(F)[C@@]1(O)CC[C@H]2[C@@H](CC(=O)[C@@H]2CCCCCCC(=O)O)O1` [LUBIPROSTONE] displayed a Hit score of 0.08446. The same measure for `N#Cc1nn(-c2c(Cl)cc(C(F)(F)F)cc2Cl)c(N)c1[S+]([O-])C(F)(F)F` (stereo not given) [FIPRONIL]: 0.1953; for `O=C(O)c1cc(O)c2c3nc4ccccc4oc-3cc(=O)c2n1` [PIRENOXINE]: 0.3657. On to `COc1cc([C@@H]2c3cc4c(cc3[C@H](O)[C@H]3COC(=O)[C@H]23)OCO4)cc(OC)c1OC` [PODOFILOX], for which the Hit score is -0.2021.

In turn, `CCN(CC)C(=O)c1cccc(C)c1` [DIETHYLTOLUAMIDE] registered a Hit score of 0.2811. The result for `CC(C)(C)NCC(O)COc1ccc(NC(=O)NC2CCCCC2)cc1` (stereo not given) [TALINOLOL] reads 0.1441; that for `CN(C)CC/C=C1/c2ccccc2Sc2ccc(Cl)cc21` [CHLORPROTHIXENE], 0.106; that for `O=C(O)CSc1nnc(Br)n1-c1ccc(C2CC2)c2ccccc12`, 0.2055. The same measure for `C[C@]12C=CC(=O)C=C1CC[C@@H]1[C@@H]2[C@@H](O)C[C@@]2(C)[C@H]1CC[C@]2(O)C(=O)COP(=O)([O-])[O-].[Na+].[Na+]` [PREDNISOLONE SODIUM PHOSPHATE]: 0.07703; for `COc1ccc(C(C)(C)C)cc1CN[C@H]1C2CCN(CC2)[C@H]1C(c1ccccc1)c1ccccc1` [MAROPITANT]: -0.04728; for `COc1cc(O)c(C(=O)c2ccccc2)cc1S(=O)(=O)O` [SULISOBENZONE]: 0.08083. The same measure for `Nc1cccc2c1C(=O)N(C1CCC(=O)NC1=O)C2=O` (stereo not given) [POMALIDOMIDE]: 0.3563. `N=C(N)NC(=O)Cc1c(Cl)cccc1Cl` [GUANFACINE] showed a Hit score of 0.1167.

`OCC(O)COc1ccc(Cl)cc1` (stereo not given) showed a Hit score of -0.006972. As to `CC1(C)CCC(C)(C)c2cc(NC(=O)c3ccc(C(=O)O)cc3)ccc21` [TAMIBAROTENE], the Hit score is listed as 0.3232. The same measure for `N[C@@H](Cc1cc(I)c(Oc2cc(I)c(O)c(I)c2)c(I)c1)C(=O)O` [LEVOTHYROXINE]: 0.1758. The same measure for `CN1c2ccccc2C(NCCCCCCC(=O)O)c2ccc(Cl)cc2S1(=O)=O` (stereo not given) [TIANEPTINE]: 0.1303; for `C/C=C(/C)C(=O)O[C@H]1C(C)=C[C@]23C(=O)[C@@H](C=C(CO)[C@@H](O)[C@]12O)[C@H]1[C@@H](C[C@H]3C)C1(C)C` [INGENOL MEBUTATE]: 0.3195; for `COC(=O)Nc1nc2ccccc2[nH]1` [CARBENDAZIM]: 0.1738. The result for `CC1CNc2c(cccc2S(=O)(=O)N[C@@H](CCCNC(=N)N)C(=O)N2CC[C@@H](C)C[C@@H]2C(=O)O)C1` (stereo not given in full) [ARGATROBAN] reads 0.1407; that for `CN(C)CCN(Cc1ccccc1)c1ccccn1` [TRIPELENNAMINE], 0.1524. As for `CN1C(=O)CC(c2ccccc2)C1=O` (stereo not given) [PHENSUXIMIDE], the Hit score is given as 0.05634. The same measure for `CN(C(=O)C(Cl)Cl)c1ccc(O)cc1` [DILOXANIDE]: -0.0329; for `CCCSc1nc(N[C@@H]2C[C@H]2c2ccc(F)c(F)c2)c2nnn([C@@H]3C[C@H](OCCO)[C@@H](O)[C@H]3O)c2n1` [TICAGRELOR]: 0.1754.

In turn, `Clc1ccc(CO/N=C(\Cn2ccnc2)c2ccc(Cl)cc2Cl)c(Cl)c1` [OXICONAZOLE] yielded a Hit score of 0.1067. The result for `N=C(N)c1ccc(/C=C/c2ccc(C(=N)N)cc2O)cc1` [HYDROXYSTILBAMIDINE] reads 0.4886; that for `O=C(Nc1ccc(C(O)(C(F)(F)F)C(F)(F)F)cc1)c1ccc(C(F)(F)F)cc1`, 0.2642; that for `O=C(O)C1=C(CSc2nnnn2CS(=O)(=O)O)CS[C@@H]2[C@H](NC(=O)[C@H](O)c3ccccc3)C(=O)N12` [CEFONICID], 0.05091.

`CCCc1c2oc(C(=O)O)cc(=O)c2cc2c(=O)cc(C(=O)O)n(CC)c12` [NEDOCROMIL] returned a Hit score of 0.05621.

In the case of `COc1cc2nc(N(C)CCCNC(=O)C3CCCO3)nc(N)c2cc1OC` (stereo not given) [ALFUZOSIN], the Hit score is listed as 0.1086.

`CCN(CC)c1ccc(C(=C2C=CC(=[N+](CC)CC)C=C2)c2ccccc2)cc1` had a Hit score of 0.02153. `CCCCCCCCCCCCCCCC(=O)OC[C@@H](NC(=O)C(Cl)Cl)[C@H](O)c1ccc([N+](=O)[O-])cc1` [CHLORAMPHENICOL PALMITATE] had a Hit score of 0.136. The result for `Cc1cccc(O)c1` [METACRESOL] reads -0.03642.
